Data from the supplement of paper PMC10849652.
Some of the results follow.

The chains behind the UniProt entries cited, without tags or fusion partners. Where a name states a change or a piece, a line headed by the entry shows the natural chain unless it says otherwise.
UniProt P02786, whole entry, looked up: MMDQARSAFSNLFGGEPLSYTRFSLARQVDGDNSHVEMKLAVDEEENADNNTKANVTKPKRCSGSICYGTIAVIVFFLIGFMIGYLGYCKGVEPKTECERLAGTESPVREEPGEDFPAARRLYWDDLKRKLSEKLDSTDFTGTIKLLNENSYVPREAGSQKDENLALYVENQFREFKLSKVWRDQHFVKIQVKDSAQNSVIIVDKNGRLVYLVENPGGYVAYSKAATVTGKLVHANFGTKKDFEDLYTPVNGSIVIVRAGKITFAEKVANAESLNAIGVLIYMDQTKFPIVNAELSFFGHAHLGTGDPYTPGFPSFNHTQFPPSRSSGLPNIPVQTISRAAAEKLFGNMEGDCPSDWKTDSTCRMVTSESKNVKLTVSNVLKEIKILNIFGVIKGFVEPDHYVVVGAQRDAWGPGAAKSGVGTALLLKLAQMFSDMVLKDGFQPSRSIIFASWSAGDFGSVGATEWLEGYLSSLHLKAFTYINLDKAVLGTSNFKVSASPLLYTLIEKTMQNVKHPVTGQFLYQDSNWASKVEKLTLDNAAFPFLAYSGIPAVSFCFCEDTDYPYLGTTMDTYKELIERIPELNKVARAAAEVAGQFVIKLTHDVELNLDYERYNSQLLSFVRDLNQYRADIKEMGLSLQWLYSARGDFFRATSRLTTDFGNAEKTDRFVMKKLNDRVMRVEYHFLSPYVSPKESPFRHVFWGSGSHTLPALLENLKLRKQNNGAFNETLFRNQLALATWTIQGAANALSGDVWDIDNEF
UniProt A7MCY6, whole entry, looked up: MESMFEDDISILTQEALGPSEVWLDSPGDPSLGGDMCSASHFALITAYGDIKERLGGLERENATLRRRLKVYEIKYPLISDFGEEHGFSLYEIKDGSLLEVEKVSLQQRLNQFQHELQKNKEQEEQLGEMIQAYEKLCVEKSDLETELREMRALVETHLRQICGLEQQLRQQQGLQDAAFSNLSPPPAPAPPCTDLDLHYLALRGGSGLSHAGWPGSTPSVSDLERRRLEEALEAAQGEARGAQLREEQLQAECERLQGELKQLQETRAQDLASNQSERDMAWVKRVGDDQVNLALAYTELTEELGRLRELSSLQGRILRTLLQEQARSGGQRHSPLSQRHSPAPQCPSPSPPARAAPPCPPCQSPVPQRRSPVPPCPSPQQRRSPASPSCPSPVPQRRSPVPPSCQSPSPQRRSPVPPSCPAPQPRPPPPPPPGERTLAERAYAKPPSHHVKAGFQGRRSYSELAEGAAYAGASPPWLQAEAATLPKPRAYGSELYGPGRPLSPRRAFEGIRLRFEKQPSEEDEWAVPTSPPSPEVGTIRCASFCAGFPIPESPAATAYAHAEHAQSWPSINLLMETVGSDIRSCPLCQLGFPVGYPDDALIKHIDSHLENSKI
UniProt Q6P1N9: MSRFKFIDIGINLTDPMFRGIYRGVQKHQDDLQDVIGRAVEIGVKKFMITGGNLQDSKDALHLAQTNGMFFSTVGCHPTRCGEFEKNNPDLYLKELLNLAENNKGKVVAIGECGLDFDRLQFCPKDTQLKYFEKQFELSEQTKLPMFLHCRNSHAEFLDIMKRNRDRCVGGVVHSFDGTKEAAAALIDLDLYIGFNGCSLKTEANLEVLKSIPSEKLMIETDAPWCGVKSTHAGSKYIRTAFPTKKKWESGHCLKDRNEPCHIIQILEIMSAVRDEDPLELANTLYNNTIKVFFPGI
UniProt Q8NDF8: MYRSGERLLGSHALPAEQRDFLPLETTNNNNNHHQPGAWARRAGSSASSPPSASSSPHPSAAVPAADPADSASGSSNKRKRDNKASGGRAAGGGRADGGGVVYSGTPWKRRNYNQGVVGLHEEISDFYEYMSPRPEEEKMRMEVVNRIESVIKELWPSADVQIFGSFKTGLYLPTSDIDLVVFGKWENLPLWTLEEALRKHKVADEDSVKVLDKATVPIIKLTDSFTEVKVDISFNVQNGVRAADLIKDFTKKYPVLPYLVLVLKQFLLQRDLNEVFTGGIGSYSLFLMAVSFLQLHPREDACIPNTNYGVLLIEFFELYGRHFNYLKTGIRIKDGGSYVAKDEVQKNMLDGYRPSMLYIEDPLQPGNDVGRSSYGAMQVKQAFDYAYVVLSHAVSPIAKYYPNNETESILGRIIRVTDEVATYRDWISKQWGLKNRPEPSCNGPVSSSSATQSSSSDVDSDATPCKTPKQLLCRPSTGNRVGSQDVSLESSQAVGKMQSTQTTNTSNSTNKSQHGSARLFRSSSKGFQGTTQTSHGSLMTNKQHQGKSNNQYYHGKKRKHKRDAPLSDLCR
UniProt Q7Z6L1: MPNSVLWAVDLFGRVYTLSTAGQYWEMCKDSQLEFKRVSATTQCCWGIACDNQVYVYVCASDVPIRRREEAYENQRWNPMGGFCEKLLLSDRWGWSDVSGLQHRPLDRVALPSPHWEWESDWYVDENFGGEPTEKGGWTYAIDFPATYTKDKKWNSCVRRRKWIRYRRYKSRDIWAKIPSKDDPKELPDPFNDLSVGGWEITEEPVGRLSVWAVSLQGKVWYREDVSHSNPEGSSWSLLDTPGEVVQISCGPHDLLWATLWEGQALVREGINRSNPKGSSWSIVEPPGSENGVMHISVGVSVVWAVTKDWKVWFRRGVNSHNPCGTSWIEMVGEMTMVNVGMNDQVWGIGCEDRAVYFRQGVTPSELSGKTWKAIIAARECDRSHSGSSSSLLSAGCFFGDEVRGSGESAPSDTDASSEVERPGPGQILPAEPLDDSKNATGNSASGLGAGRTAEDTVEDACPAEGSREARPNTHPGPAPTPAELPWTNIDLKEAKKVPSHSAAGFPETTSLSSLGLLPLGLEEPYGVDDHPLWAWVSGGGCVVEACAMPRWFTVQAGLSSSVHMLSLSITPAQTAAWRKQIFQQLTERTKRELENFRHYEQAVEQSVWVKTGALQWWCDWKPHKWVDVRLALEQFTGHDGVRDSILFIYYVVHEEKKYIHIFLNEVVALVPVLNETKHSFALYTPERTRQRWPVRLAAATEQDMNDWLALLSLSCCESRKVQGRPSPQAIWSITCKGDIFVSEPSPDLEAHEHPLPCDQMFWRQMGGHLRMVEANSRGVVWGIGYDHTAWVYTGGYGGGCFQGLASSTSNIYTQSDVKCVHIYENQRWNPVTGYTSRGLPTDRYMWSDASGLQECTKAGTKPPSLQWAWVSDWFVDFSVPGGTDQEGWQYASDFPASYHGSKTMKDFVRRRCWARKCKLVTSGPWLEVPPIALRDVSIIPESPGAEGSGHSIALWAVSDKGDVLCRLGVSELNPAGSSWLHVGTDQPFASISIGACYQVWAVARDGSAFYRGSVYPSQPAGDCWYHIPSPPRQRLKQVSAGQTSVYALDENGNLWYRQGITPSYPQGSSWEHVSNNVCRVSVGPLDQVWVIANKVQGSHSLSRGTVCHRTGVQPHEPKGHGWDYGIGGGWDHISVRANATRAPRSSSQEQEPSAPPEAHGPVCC
UniProt P28347, whole entry, looked up: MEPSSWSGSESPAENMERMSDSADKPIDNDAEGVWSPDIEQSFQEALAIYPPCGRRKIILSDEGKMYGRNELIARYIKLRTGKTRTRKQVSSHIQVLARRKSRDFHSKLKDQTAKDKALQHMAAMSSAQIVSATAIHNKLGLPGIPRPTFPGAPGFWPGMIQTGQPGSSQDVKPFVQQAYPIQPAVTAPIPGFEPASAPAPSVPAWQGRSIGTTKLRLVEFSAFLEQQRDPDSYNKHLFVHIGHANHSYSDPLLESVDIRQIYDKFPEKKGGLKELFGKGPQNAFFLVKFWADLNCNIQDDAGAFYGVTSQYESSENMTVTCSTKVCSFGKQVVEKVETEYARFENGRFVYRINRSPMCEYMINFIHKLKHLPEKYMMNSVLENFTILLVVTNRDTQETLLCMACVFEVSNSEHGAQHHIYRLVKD
UniProt Q01664: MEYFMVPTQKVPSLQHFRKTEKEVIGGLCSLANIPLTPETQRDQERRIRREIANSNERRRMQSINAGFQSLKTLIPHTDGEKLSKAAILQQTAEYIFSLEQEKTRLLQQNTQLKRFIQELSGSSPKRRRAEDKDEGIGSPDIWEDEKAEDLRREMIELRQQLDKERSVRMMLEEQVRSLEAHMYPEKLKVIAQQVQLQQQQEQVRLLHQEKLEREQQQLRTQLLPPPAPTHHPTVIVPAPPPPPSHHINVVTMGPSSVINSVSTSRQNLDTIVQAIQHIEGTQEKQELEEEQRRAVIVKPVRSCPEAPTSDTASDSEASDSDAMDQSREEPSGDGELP
UniProt P0C1Z6, whole entry, looked up: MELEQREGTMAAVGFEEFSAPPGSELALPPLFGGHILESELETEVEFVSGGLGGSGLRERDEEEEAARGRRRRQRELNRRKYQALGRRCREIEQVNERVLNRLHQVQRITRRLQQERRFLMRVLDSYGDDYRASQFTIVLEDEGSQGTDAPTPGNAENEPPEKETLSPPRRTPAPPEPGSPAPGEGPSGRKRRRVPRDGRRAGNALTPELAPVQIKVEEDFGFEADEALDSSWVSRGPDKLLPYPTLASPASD
UniProt O14907: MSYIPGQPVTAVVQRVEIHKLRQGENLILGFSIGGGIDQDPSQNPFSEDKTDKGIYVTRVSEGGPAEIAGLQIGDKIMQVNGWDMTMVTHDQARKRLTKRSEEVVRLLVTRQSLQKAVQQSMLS
UniProt Q9BT92: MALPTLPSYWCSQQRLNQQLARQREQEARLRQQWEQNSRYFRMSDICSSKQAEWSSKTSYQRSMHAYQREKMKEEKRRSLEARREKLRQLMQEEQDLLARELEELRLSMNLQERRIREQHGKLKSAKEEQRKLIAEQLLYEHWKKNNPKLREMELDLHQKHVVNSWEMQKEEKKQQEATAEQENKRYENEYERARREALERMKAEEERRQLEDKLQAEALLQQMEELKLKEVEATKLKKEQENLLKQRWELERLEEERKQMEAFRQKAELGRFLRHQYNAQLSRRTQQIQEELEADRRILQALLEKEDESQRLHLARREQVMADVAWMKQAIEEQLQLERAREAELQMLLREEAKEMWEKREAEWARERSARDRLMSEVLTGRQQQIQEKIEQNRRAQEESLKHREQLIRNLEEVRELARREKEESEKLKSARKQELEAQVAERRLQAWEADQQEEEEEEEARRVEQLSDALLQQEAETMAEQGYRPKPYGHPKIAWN
UniProt P21731: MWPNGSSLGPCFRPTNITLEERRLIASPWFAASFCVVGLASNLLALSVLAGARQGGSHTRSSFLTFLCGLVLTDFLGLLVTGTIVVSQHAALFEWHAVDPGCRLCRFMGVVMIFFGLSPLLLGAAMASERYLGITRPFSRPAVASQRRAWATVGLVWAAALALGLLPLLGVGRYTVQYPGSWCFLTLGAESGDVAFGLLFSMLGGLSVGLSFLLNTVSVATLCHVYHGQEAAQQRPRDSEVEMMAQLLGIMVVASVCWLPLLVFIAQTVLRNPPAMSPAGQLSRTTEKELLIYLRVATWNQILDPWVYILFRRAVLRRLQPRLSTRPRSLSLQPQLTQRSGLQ
UniProt Q15170: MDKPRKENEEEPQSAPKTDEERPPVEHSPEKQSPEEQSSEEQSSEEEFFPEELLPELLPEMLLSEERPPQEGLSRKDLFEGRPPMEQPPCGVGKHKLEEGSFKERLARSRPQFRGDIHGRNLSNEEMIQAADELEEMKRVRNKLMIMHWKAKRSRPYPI
UniProt Q96EI5: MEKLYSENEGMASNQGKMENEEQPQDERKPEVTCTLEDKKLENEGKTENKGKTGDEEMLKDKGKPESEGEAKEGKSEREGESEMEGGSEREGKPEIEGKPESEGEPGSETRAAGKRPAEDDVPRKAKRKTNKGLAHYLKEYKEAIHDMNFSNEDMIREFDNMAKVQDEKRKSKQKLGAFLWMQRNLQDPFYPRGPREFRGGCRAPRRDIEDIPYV
UniProt O95455: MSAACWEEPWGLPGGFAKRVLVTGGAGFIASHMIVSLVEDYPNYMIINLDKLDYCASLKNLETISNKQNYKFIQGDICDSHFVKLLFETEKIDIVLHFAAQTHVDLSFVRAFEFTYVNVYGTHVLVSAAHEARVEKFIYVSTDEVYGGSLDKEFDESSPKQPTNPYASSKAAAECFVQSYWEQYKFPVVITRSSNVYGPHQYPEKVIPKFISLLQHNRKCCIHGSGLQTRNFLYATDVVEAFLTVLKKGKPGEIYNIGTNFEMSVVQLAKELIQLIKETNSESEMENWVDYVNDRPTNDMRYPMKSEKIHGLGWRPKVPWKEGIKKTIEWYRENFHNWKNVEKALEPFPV
UniProt O15533, whole entry, looked up: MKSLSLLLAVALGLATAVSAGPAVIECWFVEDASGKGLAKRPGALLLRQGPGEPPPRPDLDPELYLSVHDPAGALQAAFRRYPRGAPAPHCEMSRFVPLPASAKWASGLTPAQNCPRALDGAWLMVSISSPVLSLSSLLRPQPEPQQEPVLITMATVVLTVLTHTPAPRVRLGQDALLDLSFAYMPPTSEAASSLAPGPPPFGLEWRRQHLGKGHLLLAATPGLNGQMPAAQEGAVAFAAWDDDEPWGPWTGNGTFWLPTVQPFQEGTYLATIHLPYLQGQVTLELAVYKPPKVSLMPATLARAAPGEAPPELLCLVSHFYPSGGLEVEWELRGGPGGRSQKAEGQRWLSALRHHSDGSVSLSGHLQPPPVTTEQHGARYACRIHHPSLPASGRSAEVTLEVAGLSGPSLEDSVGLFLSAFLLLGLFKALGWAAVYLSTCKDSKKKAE

Assays:
Assay in all cases: log2 fold change, soluble protein after heating vs DMSO (PISA); higher = thermal stabilisation; K562 lysate, 10 uM; active = over 0.2 and 3.5 SD of the protein, either way, in both replicates (recomputed)
ibrutinib = compound: C=CC(=O)N1CCC[C@@H](n2nc(-c3ccc(Oc4ccccc4)cc3)c3c(N)ncnc32)C1 [ibrutinib]
Procedure, shortened: (§1)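 Thermal stability, expressed as log-two fold change relative to solvent controls, is given from duplicates. Crude K562 extract in PBS pH 7.4 with 1 mM MgCl2, at 1 mg/mL protein, was treated with 10 μM compound for 30 min and heated in aliquots for 3 min across 48°C-58°C. After pooling, adjustment to 0.5% NP-40 at 4°C and centrifugation at 21,000xg for 90 min, supernatant protein was measured by TMTpro 16plex LC-MS/MS with channel sums equalised.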

[1] = compound: CC(=O)c1cnc2ccc(-c3cc(Cl)c(O)c(Cl)c3)nc2c1N[C@H]1CC[C@H](CN(C)C)CC1
Procedure, shortened: as §1

ralimetinib = compound: CC(C)(C)Cn1c(N)nc2ccc(-c3[nH]c(C(C)(C)C)nc3-c3ccc(F)cc3)nc21 [ralimetinib]
Procedure, shortened: as §1

[2] = compound: CC(C)(O)CC(=O)NCCn1ccc2ncnc(Nc3ccc(Oc4cccc(C(F)(F)F)c4)c(Cl)c3)c21
Procedure, shortened: as §1

[3] = compound: CC(C)C1=C2N=C(C=C(N2N=C1)NCC3=CC=CC=C3)NCCCCCCN
Procedure, shortened: as §1

[4] = compound: CC1=C(C(CC(=O)N1)C2=CC=C(C=C2)C(F)(F)F)C(=O)NC3=C(C=C4C(=C3)C=NN4)F
Procedure, shortened: as §1

[5] = compound: CC1=C(C2=C(C=C1)C(=O)C3=CC=CC=C3N2CCCN)C
Procedure, shortened: as §1

[6] = compound: CC1=C(C=C(C=C1)NC(=O)C2=CC(=CC=C2)C(C)(C)C#N)NC3=CC4=C(C=C3)N=CN(C4=O)C
Procedure, shortened: as §1

[7] = compound: CC1=C(C=C(C=C1)NC(=O)C2=CC(=CC=C2)N(C)C)NC(=O)C3=CC=C(C=C3)O
Procedure, shortened: as §1

[8] = compound: CC1=CC=C(C=C1)SC2=C3C=C(SC3=CN=C2)C(=O)N
Procedure, shortened: as §1

vemurafenib = compound: CCCS(=O)(=O)Nc1ccc(F)c(C(=O)c2c[nH]c3ncc(-c4ccc(Cl)cc4)cc23)c1F [vemurafenib]
Procedure, shortened: as §1

[9] = compound: CCCS(=O)(=O)Nc1ccc(F)c(C(=O)c2c[nH]c3ncc(Cl)cc23)c1F
Procedure, shortened: as §1

barasertib = compound: CCN(CCCOc1ccc2c(Nc3cc(CC(=O)Nc4cccc(F)c4)[nH]n3)ncnc2c1)CCOP(=O)(O)O [barasertib]
Procedure, shortened: as §1

[10] = compound: CC[C@@H]1C(=O)N(C)c2cnc(Nc3ccc(C(=O)NC4CCN(C)CC4)cc3OC)nc2N1C1CCCC1
Procedure, shortened: as §1

volasertib = compound: CC[C@@H]1C(=O)N(C)c2cnc(Nc3ccc(C(=O)N[C@H]4CC[C@H](N5CCN(CC6CC6)CC5)CC4)cc3OC)nc2N1C(C)C [volasertib]
Procedure, shortened: as §1

[11] = compound: CCn1c(C(=O)N(C2CC2)C2CC2)cc2c3c(ncn3C)c(Nc3cc(C)n(C)n3)nc21
Procedure, shortened: as §1

[12] = compound: CCn1cc(-c2ccnc3[nH]c(-c4cccc(CN(C)C)c4)cc23)c(-c2ccc(NC(=O)N(C)C)cc2)n1
Procedure, shortened: as §1

[13] = compound: CN1CCC(CNc2ccc3ncc(-c4cccc(OC(F)(F)F)c4)n3n2)CC1
Procedure, shortened: as §1

saracatinib = compound: CN1CCN(CCOc2cc(OC3CCOCC3)c3c(Nc4c(Cl)ccc5c4OCO5)ncnc3c2)CC1 [saracatinib]
Procedure, shortened: as §1

sotrastaurin = compound: CN1CCN(c2nc(C3=C(c4c[nH]c5ccccc45)C(=O)NC3=O)c3ccccc3n2)CC1 [sotrastaurin]
Procedure, shortened: as §1

Measured: log2 fold change

TFRC (UniProt P02786)
inactive: ibrutinib -0.009 | [1] -0.006 | ralimetinib -0.005 | [2] -0.01 | [3] 0.001 | [4] -0.009 | [5] 0 | [6] -0.006 | [7] -0.017 | [8] -0.01 | vemurafenib -0.007 | [9] -0.015 | barasertib -0.028 | [10] -0.002 | volasertib 0.024 | [11] -0.012 | [12] -0.023 | [13] 0.051 | saracatinib 0.011 | sotrastaurin 0.003

TENM4 (UniProt Q6N022)
inactive: ibrutinib -0.043 | [1] 0.035 | [6] 0.162 | [8] -0.109 | [9] -0.205 | barasertib 0.104 | volasertib -0.069 | [13] -0.257 | sotrastaurin 0
active: [12] 0.534

TBKBP1 (UniProt A7MCY6)
inactive: ibrutinib 0.016 | barasertib 0.101

TATDN1 isoform 2 (UniProt Q6P1N9)
inactive: ibrutinib 0.096 | [1] -0.092 | ralimetinib -0.143 | [2] -0.034 | [3] -0.007 | [6] 0.121 | [7] -0.113 | [8] -0.037 | vemurafenib 0.186 | [9] -0.134 | barasertib -0.032 | volasertib 0.074 | [11] -0.165 | sotrastaurin 0.022

TBX1 isoform 3 (UniProt O43435)
inactive: ibrutinib -0.016 | vemurafenib 0.011 | barasertib -0.018 | [10] 0.141 | [12] -0.277 | [13] 0.158

TENT4B isoform 5 (UniProt Q8NDF8)
inactive: ibrutinib -0.27 | ralimetinib 0.089 | [2] -0.012 | [3] 0.202 | [4] 0.146 | [6] 0.06 | [7] -0.05 | barasertib 0.085 | [11] 0.015 | sotrastaurin 0.032

TECPR1 isoform 4 (UniProt Q7Z6L1)
inactive: ibrutinib -0.019 | [1] 0.128 | [3] -0.075 | [5] -0.001 | [8] 0.12 | [9] -0.105 | barasertib -0.098 | volasertib -0.069 | [12] -0.092 | [13] 0.172 | saracatinib 0.092

TEAD1 (UniProt P28347)
inactive: ibrutinib 0.053 | [3] 0.219 | [5] -0.011 | vemurafenib 0.057 | barasertib 0.06 | [10] 0.099 | [12] -0.143 | [13] 0.074 | saracatinib 0.391

TCEANC2 (UniProt Q96MN5)
inactive: ibrutinib 0.046 | ralimetinib -0.042 | [2] -0.07 | [3] 0.047 | [4] -0.069 | [5] 0.077 | [7] 0.014 | vemurafenib 0.11 | barasertib 0.036 | [10] 0.004 | [11] -0.05 | saracatinib -0.02

TFAP4 (UniProt Q01664)
inactive: ibrutinib 0.057 | [1] 0.141 | ralimetinib 0.004 | [2] -0.26 | [3] -0.109 | [4] 0.046 | [6] 0.058 | [7] 0.038 | [8] 0.07 | vemurafenib 0.105 | [9] 0.021 | barasertib 0.072 | [10] 0.131 | volasertib -0.112 | [11] 0.129 | [12] 0.597 | [13] -0.189 | sotrastaurin 0.007

TFPT (UniProt P0C1Z6)
inactive: ibrutinib 0.046 | [1] 0.1 | [3] -0.053 | [5] -0.145 | [8] -0.06 | [9] -0.019 | barasertib 0.148 | volasertib 0.015 | saracatinib 0.005

TET2 (UniProt Q6N021)
inactive: ibrutinib 0.015 | [3] 0.019 | [5] -0.012 | [6] 0.177 | barasertib -0.024 | [10] -0.04 | saracatinib -0.012 | sotrastaurin 0.229

TASOR2 (UniProt Q5VWN6)
inactive: ibrutinib 0.222 | ralimetinib 0.037 | [2] -0.176 | [4] -0.035 | [5] 0.112 | [7] 0.016 | barasertib 0.194 | [10] 0.126 | [11] 0.03 | saracatinib -0.036

TAX1BP3 (UniProt O14907)
inactive: ibrutinib 0.042 | [1] 0.048 | ralimetinib 0.024 | [2] 0.074 | [3] 0.079 | [5] 0.145 | [7] 0.023 | [8] -0.015 | vemurafenib -0.015 | [9] -0.138 | barasertib 0.341 | [10] 0.119 | volasertib -0.083 | [11] -0.01 | [12] 0.021 | [13] 0.087 | saracatinib 0.039

TBC1D20 isoform 3 (UniProt Q96BZ9)
active: barasertib 0.438
inactive: ibrutinib 0.078 | [1] -0.016 | ralimetinib 0.001 | [2] -0.14 | [3] -0.082 | [5] 0.05 | [6] -0.171 | [7] 0.019 | [8] -0.005 | vemurafenib -0.088 | [9] -0.069 | [10] 0.043 | volasertib 0.008 | [11] 0.059 | [12] 0.046 | [13] -0.033 | saracatinib -0.038 | sotrastaurin -0.096

TCF20 (UniProt Q9UGU0)
inactive: ibrutinib -0.025 | [1] 0.128 | [3] -0.317 | [5] -0.212 | [6] -0.004 | [8] -0.166 | [9] -0.106 | barasertib 0.084 | volasertib 0.006 | [12] -0.02 | [13] -0.031 | saracatinib 0.038 | sotrastaurin 0.086

TCHP (UniProt Q9BT92)
inactive: ibrutinib 0.06 | ralimetinib 0.003 | [2] -0.035 | [3] -0.007 | [4] 0.021 | [5] -0.026 | [6] -0.024 | [7] 0.067 | vemurafenib 0.127 | barasertib 0.102 | [10] 0.014 | [11] 0.075 | [12] -0.04 | [13] 0.001 | saracatinib 0.108 | sotrastaurin 0.007

TBXA2R (UniProt P21731)
inactive: ibrutinib 0.176 | ralimetinib -0.004 | [2] -0.151 | [3] 0 | [6] 0.005 | [7] -0.094 | barasertib -0.007 | [11] -0.045 | [12] -0.077 | [13] 0.012 | sotrastaurin 0.013

TCEAL1 isoform 2 (UniProt Q15170)
inactive: ibrutinib 0.557 | [1] 0.123 | [8] 0.017 | vemurafenib -0.002 | [9] -0.013 | barasertib 0.156 | volasertib 0.057

TEFM (UniProt Q96QE5)
inactive: [1] -0.081 | ralimetinib -0.014 | [2] -0.17 | [3] 0.054 | [4] -0.006 | [5] 0.005 | [6] 0.032 | [7] 0.014 | [8] -0.081 | vemurafenib 0.131 | [9] 0.022 | [10] -0.021 | volasertib 0.037 | [11] -0.135 | [12] 0.026 | [13] -0.116 | saracatinib -0.037 | sotrastaurin 0.041

TCEAL4 isoform 2 (UniProt Q96EI5)
inactive: ibrutinib 0.013 | [1] 0.054 | [5] 0.007 | [6] 0.058 | [8] -0.003 | vemurafenib 0.006 | [9] -0.014 | barasertib -0.13 | [10] 0.141 | volasertib 0.01 | [12] -0.189 | [13] 0.014 | saracatinib 0.057 | sotrastaurin -0.023

TGDS (UniProt O95455)
inactive: ibrutinib 0.035 | [1] -0.046 | [4] -0.026 | [6] -0.092 | [8] 0.042 | [9] 0.039 | barasertib -0.017 | volasertib -0.041 | [12] -0.09 | [13] -0.145 | sotrastaurin 0.111

Reprinted at random: 2 entries already listed, in no set order.
TGDS (UniProt O95455)
inactive: ibrutinib 0.035 | [1] -0.046 | [4] -0.026 | [6] -0.092 | [8] 0.042 | [9] 0.039 | barasertib -0.017 | volasertib -0.041 | [12] -0.09 | [13] -0.145 | sotrastaurin 0.111

TBX1 isoform 3 (UniProt O43435)
inactive: ibrutinib -0.016 | vemurafenib 0.011 | barasertib -0.018 | [10] 0.141 | [12] -0.277 | [13] 0.158

(list continues)

TAPBP isoform 3 (UniProt O15533)
inactive: ibrutinib 0.151 | [3] -0.01 | [5] -0.081 | [6] -0.022 | vemurafenib 0.048 | barasertib 0.263 | [10] -0.068 | saracatinib 0.062 | sotrastaurin -0.017
